# Results from patent US20060166985A1, “Pyrrolydin-2-one derivatives as inhibitors of thrombin and factor xa” (priority 2002, published 2006).
# Sequences of proteins named here, by UniProt entry; tags and fusion partners are left off. Residues count along the entry.
# UniProt P00742, 41-179 partner limits assumed: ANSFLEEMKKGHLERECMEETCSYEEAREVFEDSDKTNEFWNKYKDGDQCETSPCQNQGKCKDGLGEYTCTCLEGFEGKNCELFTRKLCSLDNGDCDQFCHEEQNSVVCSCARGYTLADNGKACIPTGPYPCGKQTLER
# UniProt P00742, 235-488 limits assumed: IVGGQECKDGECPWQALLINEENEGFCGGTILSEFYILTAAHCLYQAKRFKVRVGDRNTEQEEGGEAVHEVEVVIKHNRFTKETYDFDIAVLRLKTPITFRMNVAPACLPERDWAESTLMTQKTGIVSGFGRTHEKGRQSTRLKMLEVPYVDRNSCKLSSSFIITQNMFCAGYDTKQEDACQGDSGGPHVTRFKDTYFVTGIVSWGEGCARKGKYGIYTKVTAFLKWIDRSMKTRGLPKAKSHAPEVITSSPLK
# Some of these results come from one statement about several compounds together.
# Target: human Factor Xa (Homo sapiens, UniProt P00742)
# Test: Factor Xa inhibitory activity (chromogenic or fluorogenic assay)
# Type: biochemical
# Settings: calculated as Factor Xa Ki (nM)/Thrombin Ki (nm)
smiles,measurement,value
"C[C@@H](C(=O)N1CCOCC1)N1CC[C@H](NS(=O)(=O)CCc2ccc(Cl)cc2)C1=O [Example 4, 2-(4-chlorophenyl)-N-{(3S)-1-[(1S)-1-methyl-2-morpholin-4-yl-2-oxoethyl]-2-oxopyrrolidin-3-yl}ethanesulfonamide]",ratio of inhibitory activity at thrombin compared to Factor Xa,10-25
